PubChem BioAssay AID1159584 – Peter MacCallum Cancer Centre – 2016

Assay: 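Knock-downs that harm CDH1-null cells more than parental MCF10A cells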 (primary screen)
Cells: human MCF10A breast epithelial cells, parental and CDH1-null
Reagent: siRNA against human genes
Detection: 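Cell viability by CellTiter-Glo ATP luminescence, each line scaled to the mean of mock wells across plates, then CDH1-null over parental ratio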
Reading the numbers: CDH1-null / parental viability ratio: higher = CDH1-null cells survive relatively better than parental; CDH1-null viability vs mock: higher = more viable CDH1-null cells
The deposit covers about 18,000 reagents; below is an unselected part. Not all columns of the deposit are shown. The record does not give: the amount of reagent, the time to read-out.

| Gene | CDH1-null / parental viability ratio | CDH1-null viability vs mock (fraction of mock) |
| --- | --- | --- |
| HES7 | 0.8 | 0.7 |
| EPHB1 | 0.9 | 0.76 |
| FAM167B | 0.95 | 0.81 |
| TMEM92 | 0.85 | 0.66 |
| MINDY2 | 0.99 | 0.88 |
| H2BC3 | 1.16 | 1.16 |
| NAV2 | 2 | 0.52 |
| PARP10 | 1.28 | 1.1 |
| RWDD1 | 0.85 | 0.64 |
| SLC22A24 | 0.8 | 0.51 |
| SLC17A2 | 1.07 | 1.04 |
| TEK | 0.85 | 0.82 |
| CLGN | 0.87 | 0.85 |
| PCDHA8 | 0.87 | 0.9 |
| SLC36A4 | 1.15 | 1.02 |
| GABARAPL1 | 1.13 | 0.8 |
| KLHL8 | 0.96 | 0.72 |
| MEA1 | 0.84 | 0.82 |
| LSM11 | 0.99 | 0.68 |
| MT2A | 0.87 | 0.59 |
| L3MBTL3 | 0.95 | 0.74 |
| JAKMIP2 | 1.09 | 0.85 |
| DNM1 | 1.27 | 1.12 |
| APOA4 | 1.22 | 0.66 |
| HSD17B4 | 0.97 | 1.01 |
| IL5 | 1.33 | 1.28 |
| PTPN1 | 1.22 | 0.84 |
| OMA1 | 1.6 | 0.64 |
| ABCG5 | 0.8 | 0.59 |
| WBP11 | 2.06 | 0.66 |
| SLC25A38 | 0.94 | 0.94 |
| PARD3 | 1.02 | 0.62 |
| TLN1 | 0.82 | 0.59 |
| ALOX12 | 0.96 | 0.9 |
| SMUG1 | 1.07 | 1.16 |
| CCR8 | 0.74 | 0.64 |
| HLA-E | 0.66 | 0.46 |

Next part; the last 7 above are carried over.
| Gene | CDH1-null / parental viability ratio | CDH1-null viability vs mock (fraction of mock) |
| --- | --- | --- |
| SLC25A38 | 0.94 | 0.94 |
| PARD3 | 1.02 | 0.62 |
| TLN1 | 0.82 | 0.59 |
| ALOX12 | 0.96 | 0.9 |
| SMUG1 | 1.07 | 1.16 |
| CCR8 | 0.74 | 0.64 |
| HLA-E | 0.66 | 0.46 |
| SIRPB1 | 0.63 | 0.44 |
| CLASP2 | 0.93 | 0.86 |
| SKA3 | 1.14 | 0.75 |
| ATPAF2 | 0.99 | 0.88 |
| GSTK1 | 0.93 | 0.8 |
| PAPPA | 1.07 | 0.9 |
| OGFOD1 | 1.22 | 0.88 |
| CHML | 1.23 | 0.43 |
| PTGES3 | 0.98 | 0.88 |
| IL1R2 | 1.05 | 1.18 |
| VPS13D | 1.12 | 0.76 |
| SLC6A3 | 1.05 | 1.05 |
| CHMP2A | 1.21 | 0.29 |
| IGFBP3 | 0.93 | 0.68 |
| CBX3 | 0.9 | 0.7 |
| DDX42 | 1.15 | 0.78 |
| EDEM2 | 0.84 | 0.76 |
| HOXC6 | 0.95 | 0.71 |
| USP35 | 1.09 | 1 |
| SLC15A3 | 1.2 | 1.12 |
| SNW1 | 1.06 | 0.51 |
| ASB14 | 0.88 | 0.6 |
| EIF3F | 1.34 | 1.07 |
| METTL9 | 0.94 | 1.03 |
| UBXN11 | 1.05 | 0.58 |
| HDDC2 | 0.89 | 1.1 |
| PCDH11Y | 0.93 | 0.86 |
| PGBD3 | 0.92 | 0.68 |
| CCDC74B | 0.94 | 0.73 |
| NAB2 | 1.02 | 0.86 |
| PPP1R3F | 0.88 | 0.81 |
